Activity change, negative = inhibition data for 56 compounds are collected here from PubChem BioAssay AID485318 (Broad Institute, 2010).

By UniProt entry, the sequences of proteins in these tests, tags left out. Where a name states a change or a piece, a line headed by the entry shows the natural chain unless it says otherwise.
UniProt O15379: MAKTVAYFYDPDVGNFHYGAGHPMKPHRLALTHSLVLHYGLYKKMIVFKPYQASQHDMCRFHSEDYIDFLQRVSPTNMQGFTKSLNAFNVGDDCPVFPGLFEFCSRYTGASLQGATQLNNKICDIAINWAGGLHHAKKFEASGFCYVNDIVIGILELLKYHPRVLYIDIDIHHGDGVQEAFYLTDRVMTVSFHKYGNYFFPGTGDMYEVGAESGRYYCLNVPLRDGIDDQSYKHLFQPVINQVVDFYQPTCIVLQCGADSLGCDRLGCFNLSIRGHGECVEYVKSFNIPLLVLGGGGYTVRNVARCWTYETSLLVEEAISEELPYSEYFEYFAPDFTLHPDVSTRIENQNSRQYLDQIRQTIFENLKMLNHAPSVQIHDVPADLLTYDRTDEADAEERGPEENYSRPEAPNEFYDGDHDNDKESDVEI

Out of some 1,400 compounds screened, fewer than 10 were called active.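 The calls were made as follows: active = fluorescence-lowering compounds whose fitted half-maximal concentration is at or below ten times the highest valid dose tested; inconclusive = flat curve at 30 to 70% inhibition, or poor fit; inactive = the rest.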 Some of the results follow.

This assay has as its target Histone deacetylase 3 (Homo sapiens) (UniProt O15379). Description: inhibition of human HDAC3 enzymatic activity – biochemical, fluorescence, cherry-picked samples, counter-screen for JMJD2C/GASC1 demethylase inhibitor project, dose response (AID 485318).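 Also: enzyme preincubated with compound before substrate and trypsin were added; 0% = neutral control wells and -100% = SAHA positive control wells.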 The settings on record: recombinant HDAC3, fluorogenic peptide/trypsin coupled; at 12 µM (top of the series). A general note: The purpose of a counterscreen is to sort out artefacts and off-target activity.
Regarding `O=C(COC(=O)Cc1ccccc1F)Nc1ccc(SC(F)F)cc1`, the activity change, negative = inhibition was inactive: 0.00792%.
Consider `O=C(CN1C(=O)NC2(CCCC2)C1=O)Nc1nc(-c2ccccc2)cs1`, for which the activity change, negative = inhibition is inactive: -0.418%.
For `O=c1c2c(nc3c(-c4cccc5ccccc45)c[nH]n13)CCC2`, the activity change, negative = inhibition was inactive: -0.27%.
With `CCSCC1COC(c2cccn2Cc2ccc(C)cc2)=N1` (stereo unspecified), the activity change, negative = inhibition was inactive: 0.82%.
Turning to `Fc1ccc(NC(=S)Nc2ccc(Cl)cc2Cl)cc1`, the activity change, negative = inhibition was inactive: 0.249%.
`O=C(c1cc2ccccc2oc1=O)N1CCN(CCc2ccccc2)CC1`: the activity change, negative = inhibition is inactive: -0.392%.
With `NC(=O)C1CCN(c2nc(-c3ccc4c(c3)OCCO4)cs2)CC1`, the activity change, negative = inhibition is inactive: 0.329%.
For the compound `N#Cc1cnn(CC2CCCCC2)c1N`, the activity change, negative = inhibition is inactive: 0.0338%.
With `Cc1cccn2c(=O)c(C(=O)NC3CC(C)CC(C)(C)C3)c(O)nc12` (stereo unspecified), the activity change, negative = inhibition was inactive: -0.47%.
`N#Cc1cnc(NOCc2ccc(Cl)cc2)nc1`: the activity change, negative = inhibition is inactive: -0.162%.
The same measure for `CCNC(=S)NC(=NCc1cccnc1)Nc1nc(C)cc(C)n1`: inactive: 0.0784%.
Consider `C=CCn1c(N)c(-c2nc3ccccc3n2C)sc1=S`, for which the activity change, negative = inhibition was inactive: 0.0537%.
As for `Cc1cc(C)cc(C(=O)N2CCC(C(N)=O)CC2)c1`, the activity change, negative = inhibition was inactive: 0.719%.
As to `Cc1ccc(S(=O)(=O)N2CCN(C(=O)N3CCOCC3)CC2)cc1C`, the activity change, negative = inhibition is inactive: -0.219%.
As to `COCCn1c(N)c(C(=O)NCC2CCCO2)c2nc3ccccc3nc21` (stereo unspecified), the activity change, negative = inhibition is inactive: 0.0227%.
In the case of `COc1ccc(S(=O)(=O)N(C)C[C@H]2Oc3ccc(NS(=O)(=O)c4cccs4)cc3CC(=O)N([C@H](C)CO)C[C@H]2C)cc1`, the activity change, negative = inhibition is inactive: 0.647%.
For `Cc1cc(C(F)(F)F)nn1C(=O)c1cccnc1Cl`, the activity change, negative = inhibition is inactive: -0.181%.
With `Nc1c(C(=O)OCC(=O)Nc2ccc(Cl)cc2[N+](=O)[O-])[nH]c(=O)[nH]c1=O`, the activity change, negative = inhibition was inactive: 0.0517%.
As to `CCC(=O)Nc1ccc(NC(=O)Cc2ccccc2)cn1`, the activity change, negative = inhibition was inactive: 1.57%.
With `O=C(Cn1cnc2c(OCc3ccccc3)ncnc21)NCCN1CCOCC1`, the activity change, negative = inhibition was inactive: 0.597%.
On to `COc1ccc2[nH]c(=O)c(CN(CCCN(C)C)C(=O)Nc3ccc(F)cc3)cc2c1`, for which the activity change, negative = inhibition was inactive: -0.145%.
For the compound `CN(C)/C=C1\C(=O)NN=C1c1ccccc1`, the activity change, negative = inhibition is inactive: 0.113%.
Regarding `COc1ccc(-c2nc(C#N)c(NCc3ccc(F)cc3)o2)cc1OC`, the activity change, negative = inhibition was inactive: 0.641%.
Take `CC[C@@]1(C(=O)OC)N[C@H](CN(C)C(=O)Nc2ccc(Cl)cc2)[C@@H]2C(=O)N(Cc3ccccc3)C(=O)[C@@H]21`: the activity change, negative = inhibition was inactive: -0.29%.
In the case of `C[C@H](CO)N1C[C@H](C)[C@@H](CN(C)C(=O)Nc2ccc(C(F)(F)F)cc2)Oc2c(NC(=O)Nc3ccc4c(c3)OCO4)cccc2C1=O`, the activity change, negative = inhibition was inactive: 1.11%.
For the compound `COc1ccc(NC(=O)C2CCCCN2N)cc1OCC(C)C` (stereo unspecified), the activity change, negative = inhibition is inactive: 0.00657%.
In the case of `CC(=O)Nc1ccc2nc(CN3CCC(CO)(CCc4ccccc4)CC3)ccc2c1`, the activity change, negative = inhibition was inactive: 0.293%.
Consider `COc1ccccc1CNC(=O)c1cc(-c2ccccc2)nn1CC1CC(c2cccnc2)=NO1` (stereo unspecified), for which the activity change, negative = inhibition was inactive: -0.0458%.
`Cc1cccc(N2C(=O)C3C4C=CC(C4)C3C2=O)c1` (stereo unspecified): the activity change, negative = inhibition is inactive: -0.408%.
The value for `O=c1cc2oc3cc(O)c(O)cc3c(-c3ccccc3[N+](=O)[O-])c-2cc1O` was inactive: -0.962%; that for `O=C(CSc1nc2ccccc2c(=O)n1Cc1ccc(C(=O)NC2CC2)cc1)NCc1ccco1` was inactive: 0.873%; that for `CN(C)CCN(C(=O)/C=C/c1cccs1)c1nc2ccc(F)cc2s1` was inactive: -0.147%.
Regarding `CCn1c(SCC(=O)c2ccc(C)cc2)nnc1-c1ccoc1C`, the activity change, negative = inhibition was inactive: -0.314%.
The value for `O=C(Nc1ccccc1N1CCCCC1)c1cccc(F)c1` was inactive: 0.346%; that for `CCCCC(=O)Nc1ccccc1N1CCN(c2ccc(F)cc2)CC1` was inactive: -0.278%; that for `CCn1c(=O)c(C(=O)NCCc2ccc(Cl)cc2)c(O)c2ccccc21` was inactive: -0.119%.
`CCOc1ccc(NC(=O)NC(=O)N(C(C)C)S(C)(=O)=O)cc1`: the activity change, negative = inhibition is inactive: 0.676%.
Consider `CCO[C@@H]1OC(C(=O)NC2CC2)=C[C@H](c2c[nH]c3ccccc23)[C@H]1CCCO`, for which the activity change, negative = inhibition was inactive: -0.482%.
`CCCN(C(=O)Cc1ccc(S(=O)(=O)N2CCOCC2)s1)c1c(N)n(Cc2ccccc2)c(=O)[nH]c1=O`: the activity change, negative = inhibition was inactive: -0.39%.
On to `CCOc1ccc(NC(=O)CN(C)CC(=O)Nc2cc(Cl)ccc2C#N)cc1OCC`, for which the activity change, negative = inhibition is inactive: -0.412%.
On to `O=C(Nc1nncs1)c1ccc2c(c1)OCO2`, for which the activity change, negative = inhibition was inactive: 0.282%.
In the case of `COc1ccc(C(=O)NC2CC3CCCC(C2)N3Cc2ccccc2)cc1` (stereo unspecified), the activity change, negative = inhibition was inactive: 0.361%.
Take `COc1ccc2c(C(=O)NCCCCO)c(-c3ccc(S(C)(=O)=O)cc3)sc2c1`: the activity change, negative = inhibition was inactive: 0.45%.
With `CC(CN1CCCC1)OC(=O)COc1ccccc1` (stereo unspecified), the activity change, negative = inhibition is inactive: -0.195%.
Take `CCOC(=O)c1c(NC(=O)C2CCCO2)sc2c1CCC2` (stereo unspecified): the activity change, negative = inhibition was inactive: -0.418%.
As to `N=c1n(CC(=O)c2cccc([N+](=O)[O-])c2)c2ccccc2n1Cc1ccccc1`, the activity change, negative = inhibition was inactive: 0.394%.
Consider `O=C(C1CCN(S(=O)(=O)c2ccc3ccccc3c2)CC1)N1CCN(c2ncccn2)CC1`, for which the activity change, negative = inhibition is inactive: 0.874%.
The value for `CCN(Cc1cc2cc(OC)ccc2[nH]c1=O)C(=O)c1ccncc1` was inactive: 0.128%.
On to `COCCn1c(SCC(=O)Nc2cc(C(C)(C)C)nn2-c2ccccc2)nc2ccccc2c1=O`, for which the activity change, negative = inhibition was inactive: 0.716%.
Regarding `CCN(C[C@H]1N[C@@](Cc2ccccc2)(C(=O)OC)[C@H]2C(=O)N(C)C(=O)[C@@H]12)S(=O)(=O)c1ccccc1`, the activity change, negative = inhibition is inactive: -0.222%.
As for `COc1ccc(S(=O)(=O)N2CCC(C(=O)N3CCc4ccccc4C3)CC2)cc1`, the activity change, negative = inhibition was inactive: 0.11%.
Regarding `CC(=O)Nc1sc2c(c1CN1CCN(C)CC1)CCCC2`, the activity change, negative = inhibition was inactive: -0.176%.
With `COCCCNC(=O)CC1C[C@H](C(=O)N2CCOCC2)[C@@]2(C)c3[nH]c4ccccc4c3CCN2C1=O` (stereo partly specified), the activity change, negative = inhibition was inactive: 0.685%.
Turning to `COC(=O)C(Cc1ccccc1)NC(=O)COc1ccc(C(C)(C)C)cc1` (stereo unspecified), the activity change, negative = inhibition is inactive: 0.169%.
The same measure for `Oc1ccc(/C=N/Nc2ncc(Br)cn2)c(O)c1`: inactive: -0.276%; for `CC1Oc2ccccc2N(Cc2ccccc2Cl)C1=O` (stereo unspecified): inactive: 0.423%.
